The assay concerns MOLM14 cells. The experiment in a line: alamarBlue cytotoxicity assay, 48h. It counts as cell-based. Particulars: Homo sapiens, MOLM-14, MOLM14 (AML), RPMI + 10% FBS. How it is done: Following subtraction of background fluorescence from all wells, fluorescence of drug-treated cells was normalized to that of vehicle (<0.5% DMSO)-treated cells to determine the effect of each drug concentration on viability. Each cell line was tested in triplicate and in at least three independent experiments. IC50 (concentration that inhibits cell growth by 50%) values were calculated using CompuSyn software (ComboSyn, Paramus, NJ). […] In addition several cell lines were initially cultured and tested in alternative media (Supplementary Table S2). […] Colony counts were normalized to vehicle-treated controls (100%). Three independent experiments were performed.
In most experiments, cytotoxicity was assessed using alamarBlue assays (Life Technologies, Grand Island, NY). In experiments using NAC and DFO, which can interfere with alamarBlue assay performance, Trypan Blue dye exclusion was used instead. […]
experiments performed in triplicate. […] Age refers to age […]
at the time of leukemia diagnosis of the patient from whom the cell line was derived. (–) Indicates information unavailable.
*Cell lines with FLT3/ITD mutations.
*The MV-4–11 cell line was derived from a patient with a biphenotypic B-myelomonocytic leukemia; K562 was derived […]
measured via alamarBlue assay. […]
In general terms: Resazurin is reduced to fluorescent resorufin, in cell work by metabolically active cells.

This note sets out measurements from publication PMC4872784 (Oncotarget, 2016).

The IC50 is the concentration that gives 50% inhibition.

Consider `CO[C@@H]1[C@H](N(C)C(=O)c2ccccc2)C[C@H]2O[C@]1(C)n1c3ccccc3c3c4c(c5c6ccccc6n2c5c31)C(=O)NC4` [MID, midostaurin], for which the IC50 was 11 nM.
